Reference: US12535491B2, “Vaccine comprising protein-targeted (PT) extracellular DNA isolated from bacterial matrix” (priority 2018, dated 2026)

Test system: heat-resistant proteins of human plasma
Experiment: LC/MS of heat-resistant proteins in plasma after exposure to proteinase K and boiling
Conditions: for N-plasma + pk: LC/MS, control plasma with added proteinase K, heated at 100° C. for 5 minutes

CO3_HUMAN
N-plasma + pk: 88 | Effect (N-plasma + pk vs N-plasma) (change on adding proteinase K to normal plasma): ↑

PLMN_HUMAN
N-plasma + pk: 22
